Measurements taken from article PMC7955049, “ADAR1 RNA editing enzyme regulates R-loop formation and genome stability at telomeres in cancer cells” (Nature Communications, 2021).
No constants are given. Whether binding was seen depends on the method and setting. In cells and extracts the contact can be indirect. Some binding calls cover weakened binding; strength is not graded here. For part of these data: Sequences can lack the tags named with a protein. Blank lines part the entries; values can stand above or below the binder they belong to.

Key:
FLAG-ADAR1p110-WT = target: T1, FLAG-ADAR1p110-WT (UniProt P55265-5 1-931); test: co-IP; cells expressing the FLAG-tagged bait fixed with 0.3% formaldehyde, lysed in co-IP buffer (50 mM Tris-HCl pH 7.6, 150 mM NaCl, 1 mM EDTA, 1% NP-40, 0.5% sodium deoxycholate, 0.1% SDS, RNasin Plus) and sonicated; anti-FLAG M2 magnetic beads overnight at 4 °C; immunoblot; for Fig. 10c HEK293T cells unsynchronized or synchronized at M phase (thymidine-nocodazole)
T1 construct: ADAR1 (ADAR, DRADA), nuclear p110 isoform, wild type; also called F-ADAR1p110-WT; F-ADAR1p110; source: HEK293T, stably expressing (p3XFLAG-CMV-10 plasmid co-transfected with pPUR), in lysate of formaldehyde-fixed cells
T1 sequence (looked up): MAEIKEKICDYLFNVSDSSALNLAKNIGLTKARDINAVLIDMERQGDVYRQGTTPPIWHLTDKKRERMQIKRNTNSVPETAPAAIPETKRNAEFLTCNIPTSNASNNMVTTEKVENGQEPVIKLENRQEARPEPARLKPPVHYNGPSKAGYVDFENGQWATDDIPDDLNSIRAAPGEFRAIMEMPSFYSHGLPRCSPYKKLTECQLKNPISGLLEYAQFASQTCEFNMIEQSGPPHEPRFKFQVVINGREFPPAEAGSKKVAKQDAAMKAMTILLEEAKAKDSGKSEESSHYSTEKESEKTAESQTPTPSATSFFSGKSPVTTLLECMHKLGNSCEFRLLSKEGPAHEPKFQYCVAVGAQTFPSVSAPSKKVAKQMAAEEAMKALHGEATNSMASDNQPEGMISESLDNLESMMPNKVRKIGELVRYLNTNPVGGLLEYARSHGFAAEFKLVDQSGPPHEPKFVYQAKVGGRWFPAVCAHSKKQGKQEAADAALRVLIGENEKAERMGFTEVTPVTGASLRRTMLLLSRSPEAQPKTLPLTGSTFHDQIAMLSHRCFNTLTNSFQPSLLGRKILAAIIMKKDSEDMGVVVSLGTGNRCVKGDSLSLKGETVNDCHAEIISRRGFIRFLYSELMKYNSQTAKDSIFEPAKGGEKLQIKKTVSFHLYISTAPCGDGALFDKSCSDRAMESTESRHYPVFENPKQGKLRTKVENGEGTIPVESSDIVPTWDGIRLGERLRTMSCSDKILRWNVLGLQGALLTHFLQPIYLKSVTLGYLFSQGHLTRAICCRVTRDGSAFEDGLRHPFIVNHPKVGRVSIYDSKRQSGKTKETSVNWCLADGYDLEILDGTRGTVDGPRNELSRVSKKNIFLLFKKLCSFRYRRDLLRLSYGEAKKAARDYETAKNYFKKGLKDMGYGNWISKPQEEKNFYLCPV

FLAG-ADAR2-WT = FLAG-ADAR2-WT (UniProt P78563); test: as above

binding (FLAG-ADAR1p110-WT): binds
B1: RNase H2C (protein, UniProt Q8TDP1 1-164)
chain: MESGDEAAIERHRVHLRSATLRDAVPATLHLLPCEVAVDGPAPVGRFFTPAIRQGPEGLEVSFRGRCLRGEEVAVPPGLVGYVMVTEEKKVSMGKPDPLRDSGTDDQEEEPLERDFDRFIGATANFSRFTLWGLETIPGPDAKVRGALTWPSLAAAIHAQVPED

binding (FLAG-ADAR1p110-WT): no binding
binding (FLAG-ADAR2-WT): no binding
B2: RNase H1 (protein, UniProt O60930 1-286)
chain: MSWLLFLAHRVALAALPCRRGSRGFGMFYAVRRGRKTGVFLTWNECRAQVDRFPAARFKKFATEDEAWAFVRKSASPEVSEGHENQHGQESEAKASKRLREPLDGDGHESAEPYAKHMKPSVEPAPPVSRDTFSYMGDFVVVYTDGCCSSNGRRRPRAGIGVYWGPGHPLNVGIRLPGRQTNQRAEIHAACKAIEQAKTQNINKLVLYTDSMFTINGITNWVQGWKKNGWKTSAGKEVINKEDFVALERLTQGMDIQWMHVPGHSGFIGNEEADRLAREGAKQSED
